Earlier results in patent US8501744B2, “Piperazine compounds” (Amura Therapeutics, Limited, priority 2008, dated 2013).
At least one compound was matched to its structure with a doubt left.

Settings: ratio 4-S:4-R; cited from earlier work

Question: With `CC(C)C[C@H](NC(=O)c1cc2ccccc2o1)C(=O)N[C@H]1CC[C@@H](C)N(S(=O)(=O)c2ccccn2)CC1=O` [relacatib] as the compound, how does the “thermodynamic mixture of 4-S and 4-R isomers” value read?
Answer: Its value is 9:1.
